Experimental data as given in patent US6348573.
No constants are given. Whether binding was seen depends on the method and setting. In cells and extracts the contact can be indirect. Some entries that bind do so weakly or less than the wild type. Where a sequence is shown, tags or fusion partners need not be part of it.

Sequences of proteins named here, by UniProt entry; tags and fusion partners are left off. A change or cut given only in a name is not applied to a line headed by its entry. A line that says so, or that is headed by a name, gives the form on record, which may keep a tag or linker.
caspase-8, epitope-tagged (pcDNA3-caspase-8-AU1) (Q14790, form named): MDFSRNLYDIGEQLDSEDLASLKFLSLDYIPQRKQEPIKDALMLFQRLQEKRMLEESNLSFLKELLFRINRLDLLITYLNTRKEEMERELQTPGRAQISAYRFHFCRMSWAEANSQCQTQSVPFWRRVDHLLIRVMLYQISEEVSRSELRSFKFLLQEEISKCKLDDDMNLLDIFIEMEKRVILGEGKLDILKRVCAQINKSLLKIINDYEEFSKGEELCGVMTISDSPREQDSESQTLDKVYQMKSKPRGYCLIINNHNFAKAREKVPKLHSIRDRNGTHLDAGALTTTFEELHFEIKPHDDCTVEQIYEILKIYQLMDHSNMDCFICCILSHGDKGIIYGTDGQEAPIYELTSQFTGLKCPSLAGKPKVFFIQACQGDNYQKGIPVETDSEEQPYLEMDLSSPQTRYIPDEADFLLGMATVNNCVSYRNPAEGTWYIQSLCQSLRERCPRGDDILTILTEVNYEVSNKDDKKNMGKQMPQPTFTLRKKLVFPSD

Tests used:
[1] = target: T1, C. elegans CED-3, epitope-tagged (pcDNA3-Ced-3-Flag) (C. elegans) (UniProt P42573); assay: co-immunoprecipitation from co-transfected 293T cells, immunoblot
T1 sequence (looked up): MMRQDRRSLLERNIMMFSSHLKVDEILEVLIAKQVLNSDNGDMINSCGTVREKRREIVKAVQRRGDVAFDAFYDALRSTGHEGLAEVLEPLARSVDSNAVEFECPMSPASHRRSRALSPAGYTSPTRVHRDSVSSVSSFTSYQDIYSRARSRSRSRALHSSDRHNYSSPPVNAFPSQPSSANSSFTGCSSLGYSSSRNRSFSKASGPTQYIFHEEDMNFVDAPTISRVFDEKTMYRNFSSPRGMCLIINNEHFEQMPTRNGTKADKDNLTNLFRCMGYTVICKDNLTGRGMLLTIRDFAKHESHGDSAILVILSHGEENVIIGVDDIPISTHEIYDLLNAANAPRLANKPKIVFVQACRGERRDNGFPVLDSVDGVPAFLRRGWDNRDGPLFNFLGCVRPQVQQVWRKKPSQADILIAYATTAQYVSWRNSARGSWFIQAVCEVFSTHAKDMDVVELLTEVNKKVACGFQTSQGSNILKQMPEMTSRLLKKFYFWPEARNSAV

[2] = target: caspase-8, epitope-tagged (pcDNA3-caspase-8-AU1) (human) (UniProt Q14790); assay: as above
[3] = target: T2, human caspase-2, epitope-tagged (human) (UniProt P42575); assay: as above
T2 sequence (looked up): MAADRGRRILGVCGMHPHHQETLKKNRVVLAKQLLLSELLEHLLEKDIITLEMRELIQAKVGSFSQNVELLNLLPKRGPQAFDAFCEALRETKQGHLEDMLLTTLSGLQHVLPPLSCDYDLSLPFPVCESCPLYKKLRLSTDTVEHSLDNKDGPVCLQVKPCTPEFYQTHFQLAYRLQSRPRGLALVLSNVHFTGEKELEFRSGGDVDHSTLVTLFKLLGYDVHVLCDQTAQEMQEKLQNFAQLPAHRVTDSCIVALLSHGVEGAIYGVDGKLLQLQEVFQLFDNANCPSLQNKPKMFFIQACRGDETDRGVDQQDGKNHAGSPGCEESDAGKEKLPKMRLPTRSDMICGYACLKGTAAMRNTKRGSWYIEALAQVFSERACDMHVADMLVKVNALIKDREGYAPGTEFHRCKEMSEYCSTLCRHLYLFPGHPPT

[4] = target: T1, C. elegans CED-3, epitope-tagged (pcDNA3-Ced-3-Flag) (C. elegans); assay: co-immunoprecipitation from co-transfected 293T cells, immunoblot (FIG. 6)
[5] = target: caspase-8, epitope-tagged (pcDNA3-caspase-8-AU1) (human) (UniProt Q14790); assay: as above
[6] = target: T2, human caspase-2, epitope-tagged (human); assay: as above

binding [1]: binds
binding [2]: binds
binding [3]: binds
binding [4]: binds
binding [5]: binds
binding [6]: binds
B1: human ARC (Apoptosis Repressor with CARD domain), C-terminally Flag- or HA-tagged (protein, not shown: small tags and cut ends)
chain: MGNAQERPSETIDRERKRLVETLQADSGLLLDALLARGVLTGPEYEALDALPDAERRVRRLLLLVQGKGEAACQELLRCAQRTAGAPDPAWDWQHVGPGYRDRSYDPPCPGHWTPEAPGSGTTCPGLPRASDPDEAGGPEGSEAVQSGTPEEPEPELEAEASKEAEPEPEPEPELEPEAEAEPEPELEPEPDPEPEPDFEERDESEDS
